Measurements reported in the supplement of paper PMC4604168 (melanoma cell lines).
The other results are listed elsewhere or left out. Single values are uncertain, as repeats are few or missing.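 The apoptosis fraction was the count of cleaved-PARP antibody-stained nuclei relative to all DNA-stained nuclei, imaged in 1,536-well plates. Screening doses were set so most cells survived, and baseline and induced cleaved-PARP levels vary greatly across cell lines.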

Experiments:
Test in all cases: cleaved PARP positive nuclei fraction relative to DMSO control; melanoma cells; higher = more apoptosis
Conditions in all cases: library dose: low library concentration; 72 h
MZ2-MEL = test system: MZ2-MEL
MeWo = test system: MeWo
RPMI7951 = test system: RPMI7951
RVH-421 = test system: RVH-421
SkMel28 = test system: SkMel28
SkMel2 = test system: SkMel2
SkMel30 = test system: SkMel30
UACC62 = test system: UACC62
WM115 = test system: WM115
WM1716 = test system: WM1716
WM1745 = test system: WM1745
WM3526 = test system: WM3526
WM3619 = test system: WM3619
WM451Lu = test system: WM451Lu
SkMel5 = test system: SkMel5
UACC257 = test system: UACC257

| Compound | cleaved PARP positive nuclei fraction (MZ2-MEL) | cleaved PARP positive nuclei fraction (MeWo) | cleaved PARP positive nuclei fraction (RPMI7951) | cleaved PARP positive nuclei fraction (RVH-421) | cleaved PARP positive nuclei fraction (SkMel28) | cleaved PARP positive nuclei fraction (SkMel2) | cleaved PARP positive nuclei fraction (SkMel30) | cleaved PARP positive nuclei fraction (UACC62) | cleaved PARP positive nuclei fraction (WM115) | cleaved PARP positive nuclei fraction (WM1716) | cleaved PARP positive nuclei fraction (WM1745) | cleaved PARP positive nuclei fraction (WM3526) | cleaved PARP positive nuclei fraction (WM3619) | cleaved PARP positive nuclei fraction (WM451Lu) | cleaved PARP positive nuclei fraction (SkMel5) | cleaved PARP positive nuclei fraction (UACC257) |
| --- | --- | --- | --- | --- | --- | --- | --- | --- | --- | --- | --- | --- | --- | --- | --- | --- |
| O=c1[nH]nc(Sc2ncc([N+](=O)[O-])s2)n1-c1ccc2c(c1)OCCO2 + C#Cc1cccc(Nc2ncnc3cc(OCCOC)c(OCCOC)cc23)c1 [erlotinib] (first compound 0.2 µM, partner dose 0.8 µM) | 88.3% | 46.9% | 85.4% | 122% | 47.4% | 129% | 64.3% | 189% | 82.2% | 181% | 111% | 19% | 92.8% | 107% | – | – |
| COc1cc([C@@H]2c3cc4c(cc3[C@@H](O[C@@H]3O[C@@H]5CO[C@@H](C)O[C@H]5[C@H](O)[C@H]3O)[C@H]3COC(=O)[C@H]23)OCO4)cc(OC)c1O [etoposide] + O=C(Nc1cccc(Cl)c1)Nc1ncc(CCNc2ncnc3ccsc23)s1 [SNS314] (first compound 0.02 µM, partner dose 0.0008 µM) | 118% | 58.6% | 134% | 103% | 286% | 251% | 68.7% | 75% | – | 95.8% | 94% | 18.6% | – | 50% | 45.2% | 83.7% |
| CC[C@]1(O)C[C@H]2CN(CCc3c([nH]c4ccccc34)[C@@](C(=O)OC)(c3cc4c(cc3OC)N(C=O)[C@H]3[C@@](O)(C(=O)OC)[C@H](OC(C)=O)[C@]5(CC)C=CCN6CC[C@]43[C@@H]65)C2)C1 [vincristine] + Nc1nc(F)nc2c1ncn2[C@@H]1O[C@H](CO)[C@@H](O)[C@@H]1O [fludarabine] (first compound 0.0001 µM, partner dose 0.2 µM) | 114% | 6340% | 291% | 154% | 125% | 92.6% | 2520% | 561% | 1500% | 396% | 105% | 1160% | 153% | 171% | – | – |
| COc1cc([C@@H]2c3cc4c(cc3[C@@H](O[C@@H]3O[C@@H]5CO[C@@H](C)O[C@H]5[C@H](O)[C@H]3O)[C@H]3COC(=O)[C@H]23)OCO4)cc(OC)c1O [etoposide] + Nc1ncn([C@H]2C[C@H](O)[C@@H](CO)O2)c(=O)n1 [decitabine] (first compound 0.02 µM, partner dose 0.1 µM) | 64% | 119% | 66.1% | 58.8% | 50.4% | 122% | 72.3% | 142% | 229% | 204% | 83.6% | 40.4% | 82.6% | 278% | – | – |
| Cc1ccc(Nc2nccc(N(C)c3ccc4c(C)n(C)nc4c3)n2)cc1S(N)(=O)=O [Pazopanib] + C[C@]1(O)C[C@@H](c2nc(-c3ccc4ccc(-c5ccccc5)nc4c3)c3c(N)nccn32)C1 [OSI906] (first compound 0.4 µM, partner dose 0.4 µM) | 36.8% | 45.9% | 130% | 59.3% | 41.3% | 54.7% | 333% | 10.9% | 81.5% | 51.7% | 128% | 77.6% | 102% | 101% | – | – |
| Cc1cn(-c2cc(NC(=O)c3ccc(C)c(Nc4nccc(-c5cccnc5)n4)c3)cc(C(F)(F)F)c2)cn1 [nilotinib] + C=C(c1ccc(C(=O)O)cc1)c1cc2c(cc1C)C(C)(C)CCC2(C)C [Bexarotene] (first compound 0.2 µM, partner dose 2 µM) | 54.3% | 297% | 99.5% | 234% | 55.2% | 108% | 54.3% | 204% | 55.5% | 529% | 2390% | 58.7% | 111% | 74.7% | – | – |
| Cc1ccc(Nc2nccc(N(C)c3ccc4c(C)n(C)nc4c3)n2)cc1S(N)(=O)=O [Pazopanib] + Clc1ccc(Nc2nnc(Cc3ccncc3)c3ccccc23)cc1 [vatalanib] (first compound 0.4 µM, partner dose 2 µM) | 121% | 95.4% | 110% | 132% | 74.7% | 77.5% | 81.2% | 239% | 53.5% | 73.5% | 108% | 54.4% | 107% | 48.7% | – | – |
| O=C(Nc1cc(C(F)(F)F)cc(C(F)(F)F)c1)c1cc(Cl)ccc1O + COc1ccc(C2=N[C@@H](c3ccc(Cl)cc3)[C@@H](c3ccc(Cl)cc3)N2C(=O)N2CCNC(=O)C2)c(OC(C)C)c1 [Nutlin-3] (first compound 0.016 µM, partner dose 0.1 µM) | 98.1% | 89.1% | 38.5% | 125% | 253% | 101% | 63.2% | 94.1% | 29.1% | 290% | 76.9% | 69.5% | 84.5% | 59.2% | – | – |
| CC[C@]1(O)C[C@H]2CN(CCc3c([nH]c4ccccc34)[C@@](C(=O)OC)(c3cc4c(cc3OC)N(C=O)[C@H]3[C@@](O)(C(=O)OC)[C@H](OC(C)=O)[C@]5(CC)C=CCN6CC[C@]43[C@@H]65)C2)C1 [vincristine] + Nc1ncn([C@H]2C[C@H](O)[C@@H](CO)O2)c(=O)n1 [decitabine] (first compound 0.0001 µM, partner dose 0.1 µM) | 90.3% | 182% | 208% | 135% | 130% | 72.2% | 219% | 196% | 1290% | 207% | 98.8% | 32.3% | 102% | 114% | – | – |
| CC[C@]1(O)C[C@H]2CN(CCc3c([nH]c4ccccc34)[C@@](C(=O)OC)(c3cc4c(cc3OC)N(C=O)[C@H]3[C@@](O)(C(=O)OC)[C@H](OC(C)=O)[C@]5(CC)C=CCN6CC[C@]43[C@@H]65)C2)C1 [vincristine] + Nc1ccn([C@@H]2O[C@H](CO)[C@@H](O)C2(F)F)c(=O)n1 [gemcitabine] (first compound 0.0001 µM, partner dose 0.0004 µM) | 36.8% | 104% | 76.8% | 78.4% | 49.5% | 70.2% | 152% | 562% | 1620% | 142% | 113% | 114% | 145% | 301% | – | – |
| CC[C@]1(O)C[C@H]2CN(CCc3c([nH]c4ccccc34)[C@@](C(=O)OC)(c3cc4c(cc3OC)N(C=O)[C@H]3[C@@](O)(C(=O)OC)[C@H](OC(C)=O)[C@]5(CC)C=CCN6CC[C@]43[C@@H]65)C2)C1 [vincristine] + C[C@@H](N)c1ccc(C(=O)Nc2ccnc3[nH]ccc23)cc1 [RKI983] (first compound 0.0001 µM, partner dose 0.4 µM) | 240% | 3280% | 568% | 500% | 138% | 190% | 117% | 1070% | 1230% | 3480% | 163% | 58.1% | 178% | 282% | – | – |
| N#CC[C@H](C1CCCC1)n1cc(-c2ncnc3[nH]ccc23)cn1 [ruxolitinib] + O=C(O)c1ccc2c(c1)nc(Nc1cccc(Cl)c1)c1ccncc12 [CX4945] (first compound 1 µM, partner dose 0.4 µM) | 170% | 109% | 80.4% | 98.7% | 81.3% | 185% | 42.8% | 219% | 55.3% | 67.7% | 92.4% | 39% | 118% | 59.7% | – | – |
| CC[C@]1(O)C[C@H]2CN(CCc3c([nH]c4ccccc34)[C@@](C(=O)OC)(c3cc4c(cc3OC)N(C=O)[C@H]3[C@@](O)(C(=O)OC)[C@H](OC(C)=O)[C@]5(CC)C=CCN6CC[C@]43[C@@H]65)C2)C1 [vincristine] + Cc1nc(Nc2ncc(C(=O)Nc3c(C)cccc3Cl)s2)cc(N2CCN(CCO)CC2)n1 [dasatanib] (first compound 0.0001 µM, partner dose 0.004 µM) | 185% | 301% | 119% | 55.7% | 118% | 81.5% | 169% | 295% | 2480% | 96.6% | 154% | 158% | 191% | 63.8% | – | – |
| CC[C@]1(O)C[C@H]2CN(CCc3c([nH]c4ccccc34)[C@@](C(=O)OC)(c3cc4c(cc3OC)N(C=O)[C@H]3[C@@](O)(C(=O)OC)[C@H](OC(C)=O)[C@]5(CC)C=CCN6CC[C@]43[C@@H]65)C2)C1 [vincristine] + CC(=O)c1c(C)c2cnc(Nc3ccc(N4CCNCC4)cn3)nc2n(C2CCCC2)c1=O [palbociclib] (first compound 0.0001 µM, partner dose 0.04 µM) | 52.2% | 177% | 199% | 85.3% | 148% | 70.7% | 150% | 419% | 335% | 208% | 148% | 99.1% | 172% | 108% | – | – |
| COc1cc([C@@H]2c3cc4c(cc3[C@@H](O[C@@H]3O[C@@H]5CO[C@@H](C)O[C@H]5[C@H](O)[C@H]3O)[C@H]3COC(=O)[C@H]23)OCO4)cc(OC)c1O [etoposide] + Nc1ccn([C@@H]2O[C@H](CO)[C@@H](O)C2(F)F)c(=O)n1 [gemcitabine] (first compound 0.02 µM, partner dose 0.0004 µM) | 104% | 170% | 81.1% | 65.5% | 89.6% | 109% | 186% | 179% | 120% | 156% | 108% | 49% | – | – | – | – |
| O=C(Nc1cc(C(F)(F)F)cc(C(F)(F)F)c1)c1cc(Cl)ccc1O + CCCCCCCCCCCCCCCCCCOP(=O)([O-])OC1CC[N+](C)(C)CC1 [Perifosine] (first compound 0.016 µM, partner dose 0.4 µM) | 101% | 150% | 82.8% | 124% | 74.5% | 71.2% | 127% | 277% | 159% | 74.4% | 93.3% | 443% | 101% | 376% | – | – |
| COc1cc([C@@H]2c3cc4c(cc3[C@@H](O[C@@H]3O[C@@H]5CO[C@@H](C)O[C@H]5[C@H](O)[C@H]3O)[C@H]3COC(=O)[C@H]23)OCO4)cc(OC)c1O [etoposide] + CS(=O)(=O)CCNCc1ccc(-c2ccc3ncnc(Nc4ccc(OCc5cccc(F)c5)c(Cl)c4)c3c2)o1 [lapatinib] (first compound 0.02 µM, partner dose 0.8 µM) | 91.8% | 68.4% | 86.2% | 73.9% | 129% | 129% | 132% | 71.7% | 38.9% | 78.4% | 227% | 49.5% | 112% | 44.6% | – | – |
| O=C(Nc1cc(C(F)(F)F)cc(C(F)(F)F)c1)c1cc(Cl)ccc1O + C[C@@H](Oc1cc(-c2cnn(C3CCNCC3)c2)cnc1N)c1c(Cl)ccc(F)c1Cl [Crizotinib] (first compound 0.016 µM, partner dose 0.2 µM) | 64.2% | 32.5% | 23.6% | 64.1% | 20.3% | 161% | 79.6% | 111% | 89% | 44.9% | 86.4% | 79.4% | 87.6% | 51.6% | – | – |

Single values from above.
Entry of COc1cc([C@@H]2c3cc4c(cc3[C@@H](O[C@@H]3O[C@@H]5CO[C@@H](C)O[C@H]5[C@H](O)[C@H]3O)[C@H]3COC(=O)[C@H]23)OCO4)cc(OC)c1O [etoposide] + O=C(Nc1cccc(Cl)c1)Nc1ncc(CCNc2ncnc3ccsc23)s1 [SNS314] (first compound 0.02 µM, partner dose 0.0008 µM) under cleaved PARP positive nuclei fraction (UACC257): 83.7%
Entry of CC[C@]1(O)C[C@H]2CN(CCc3c([nH]c4ccccc34)[C@@](C(=O)OC)(c3cc4c(cc3OC)N(C=O)[C@H]3[C@@](O)(C(=O)OC)[C@H](OC(C)=O)[C@]5(CC)C=CCN6CC[C@]43[C@@H]65)C2)C1 [vincristine] + Nc1ncn([C@H]2C[C@H](O)[C@@H](CO)O2)c(=O)n1 [decitabine] (first compound 0.0001 µM, partner dose 0.1 µM) under cleaved PARP positive nuclei fraction (SkMel2): 72.2%
